Here are results for one molecule from publication doi:10.1101/2025.08.17.670746.

No constants are given. Whether binding was seen depends on the method and setting. Some results given as binding are weak or reduced against the parent protein; the word gives no strength. Tags and fused reporters may be left off the sequences shown.

The experiment deals with CDM1, yeast two-hybrid bait and prey fusions (Arabidopsis thaliana) (UniProt Q9C9F5). The experiment can be described thus: two-hybrid.

B1: CDM1, yeast two-hybrid bait and prey fusions (protein, UniProt Q9C9F5 1-308)
chain: MENKIAPFSYSGSSAGNSSSGGVVSSSLYSDQLYKSTRNIMQQRQDMVNREALCYTRLHEASLEAEALRLENTELRSMNLRLKNELNSLIRSSIQNRFDHRSPLRMLSNLSIGGNDADEVENQNRTVNRDDVNDKSPTSVMENEDLNRSSLPKSISVRSNGYSKASQGGGGAAAQSGKPRGTVTKPGTCGQVSTTQKVYVRGGGKKEDQEEEIEVEVYNQGMTKTELCNKWQETGTCPYGDHCQFAHGIKELRPVIRHPRYKTEVCRMVLAGDNCPYGHRCHFRHSLSEQEKLVAAGFKPKSSLKLIT
For B1, the binding entry is “binds”.
